Results as given in PubChem BioAssay AID1990 (Broad Institute, 2009).
The median lay at about -60%. Some of the results follow. Entries with a potency or affinity are not part of this list. Entries without a call are filed as inconclusive in the source.

Amino acid sequences for entries named in this document (tags omitted).
UniProt P08659, whole entry, looked up: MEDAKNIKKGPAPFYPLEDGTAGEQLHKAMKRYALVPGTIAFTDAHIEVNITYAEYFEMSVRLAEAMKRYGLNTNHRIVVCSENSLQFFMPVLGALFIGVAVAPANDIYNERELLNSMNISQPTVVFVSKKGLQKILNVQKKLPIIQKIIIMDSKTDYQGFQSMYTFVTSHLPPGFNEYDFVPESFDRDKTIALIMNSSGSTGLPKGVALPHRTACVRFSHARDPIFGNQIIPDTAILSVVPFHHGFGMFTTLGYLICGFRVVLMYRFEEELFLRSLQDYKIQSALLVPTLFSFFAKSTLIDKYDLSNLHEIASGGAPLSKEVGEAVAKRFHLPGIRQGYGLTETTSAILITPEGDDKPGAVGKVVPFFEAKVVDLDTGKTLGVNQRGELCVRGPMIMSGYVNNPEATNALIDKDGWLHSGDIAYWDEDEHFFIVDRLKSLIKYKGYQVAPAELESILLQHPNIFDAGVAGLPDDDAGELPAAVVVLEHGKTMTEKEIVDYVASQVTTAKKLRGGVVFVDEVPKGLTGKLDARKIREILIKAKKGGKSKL

Molecular target: Luciferin 4-monooxygenase (Photinus pyralis) (UniProt P08659)
Experiment: Luciferase translation or activity inhibitors, H4 neuroglioblastoma cells, luminescence dose response (AID 1990)
Settings: H4 neuroglioma cells; at 12 µM (top of the series)

Compound	activity change, negative = inhibition [%]
CC/C=C/CC(=O)N[C@@H](c1ccccc1)[C@@H](O)C(=O)O[C@H]1C[C@@]2(O)[C@@H](OC(=O)c3ccccc3)C3[C@](C)(C(=O)[C@H](OC(C)=O)C(=C1C)C2(C)C)[C@@H](O)C[C@H]1OC[C@@]31OC(C)=O (stereo partly drawn)	-32.6
Cc1cc(C)c(N=Cc2c(O)[nH]c(=O)[nH]c2=O)c(C)c1	-60.9
Cc1c2ccncc2c(C)c2c1[nH]c1ccccc12	-100
